Assay results as given in patent publication US20260193257A1, “BICYCLIC DERIVATIVES” (Elanco Tiergesundheit AG, priority 2018, published 2026).
Some of these results come from one statement about several compounds together.

What was measured:
A. viteae = experiment: Filarial nematodes, Av model in gerbils; settings: oral gavage, dose between 1×3 mg/kg and 5×32 mg/kg, necropsy 12 weeks after infection
H. contortus = experiment: Gastro intestinal nematodes, infected jird model (H. contortus); settings: Jirds (Meriones unguiculatus), oral, Day 6 after infection, dose between 1×3 mg/kg and 1×32 mg/kg, worms recovered from stomach three days after treatment

| Structure (SMILES) | Efficacy against Av (% reduction in worm numbers vs placebo, Abbot's formula) (A. viteae) | Efficacy against Hc (% reduction in worm numbers vs placebo, Abbot's formula) (H. contortus) |
| --- | --- | --- |
| CN(C)c1c(NC(=O)[C@@H]2CCOc3ccccc32)cnc2c(-c3cc(Cl)cc(Cl)c3)cccc12 [Example 1.1, (4R)—N-[8-(3,5-dichlorophenyl)-4-(dimethylamino)-3-quinolyl]chromane-4-carboxamide] | > 80% | > 80% |
| CN(C)c1c(NC(=O)[C@H]2CCCc3ccccc32)cnc2c(-c3cc(Cl)cc(Cl)c3)cccc12 [Example 1.4, (1S)-N-[8-(3,5-dichlorophenyl)-4-(dimethylamino)-3-quinolyl]tetralin-1-carboxamide] | > 80% | > 80% |
| CN(C)c1c(NC(=O)[C@H]2CCOc3ccccc32)cnc2c(-c3cc(Cl)cc(C(F)(F)F)c3)cccc12 [Example 1.11, (4S)-N-[8-[3-chloro-5-(trifluoromethyl)phenyl]-4-(dimethylamino)-3-quinolyl]chromane-4-carboxamide] | > 80% | > 80% |
